# Reference: patent publication US20160237450A1, “METHOD FOR ENHANCING DROUGHT TOLERANCE IN PLANTS” (Plant Response Biotech S.L., priority 2015, published 2016)
# For at least one compound, name, drawing or mass did not settle the structure.
# Test system: pepper plants ('Palermo')
# Test: Pepper fruit production, spray or constant irrigation
# Assay type: in vivo
# Conditions: 30% water; 1 g/L irrigation
# From the text: TMAO di-hydrate applied exogenously which increases the endogenous content of TMAO as if the plants were overexpressing an FMO protein at least 4 times increases pepper production per plant and pepper fruit weight under limited water irrigation and under no stress. ‘Palermo’ pepper seeds were sown, grown and treated as described above.
smiles,measurement,value
"C[N+](C)(C)[O-].O.O [TMAO di-hydrate, trimethylamine N-oxide di-hydrate]",AVERAGE WEIGHT (GRAMS) PER PEPPER FRUIT,37.7.0 ± 1.1 GRAMS
